Results are given in words; binding and its absence hold for the method and conditions named. Some results given as binding are weak or reduced against the parent protein; the word gives no strength.
B1: BI-009 (VHH)
VHH: EVQLVESGGGLVHPGGSLRLSCVASGFRFTPYTMGWYRQAPGKQRELVASISSVYSTNYADSVKGRFTVSRDNVKGTVSLQMNSLKPEDTAVYYCNAPGLLHEEGTDYWGQGTQVTVSS
B2: BI-010 (VHH)
VHH: QVQLVESGGGSVQVGGSLRLSCVGSGRTLNMYNMGWFRQAPGKEREFVAAISGKGLISDYRDSVKGRFTISRDNARNTMYLQMNSLKPEDTAVYHCAAGQWSAGPFTRERSYEYWGQGTQVTVSS
B3: BI-011 (VHH)
VHH: EVQLVESGGGLVQAGGSLRLSCAASGRTFSRWTMAWFRQAPGKERDFVAAVGWWNDSTYYADSVKGRFTISRDNNENTLYLQMNSLKPEDTAVYICASTEKYGLGQPNPRRYDYWGQGTQVTVSS
B4: BI-012 (VHH)
VHH: QVQLVESGGGLVQPGGSLRLSCAASGRTLSSYTMAWFRQAPGKEREFVATISPVGFIMDYADSVKGRFTISRDNTKNTVYLQMNSLKHEDTALYYCATDLGRKLGTQSREYGYWGQGTQVTVSS
B5: BI-013 (VHH)
VHH: EVQLVESGGGLVQAGGSLRLSCAASGRTFSTYAVGWFRQAPGKEREFVAAISWGGGTVRYADSVKGRSTISRDDAKNTVYLQMNSLKPEDTAIYYCAARVLHIATKAVDFGSWGQGTQVTVSS
B6: BI-014 (VHH)
VHH: EVQLVESGGGSVQVGGSLRLSCVASGRTFNMYVMGWFRQAPGKEREFVAAISGEGLISDYRDSVKGRFTISRDNAKNTMYLQMNSLKPEDTAVYHCAAGQWTNGPFTRERTYEYWGQGTQVTVSS
B7: BI-015 (VHH)
VHH: EVQLVESGGGLVQPGGSLRLSCAASGRDFDRSTMAWYRQAPGKQRELVASIPSDIGTKYADSVKGRFFISRVYAKNTNTVYLQMNSLKPEDTAVYYCYAHIDSDYWGQGTQVTVSS
B8: BI-016 (VHH)
VHH: EVQLVESGGGLVQPGGSLRLSCAASGRTFSSRAMGWFRQAPGKEREFVAAISFGGGTIRYADSVKGRFTISRDDAKNTVYLQMNSLKPEDTAVYYCAARRLHIATLAADFDSWGQGTQVTVSS
B9: BI-017 (VHH)
VHH: EVQLVESGGGLVQAGGSLRLSCSASGRSLNDYIVGWFRQAPGKERELVAAISSGGYIQHYIDSVKGRFTISRDNAKNTVYLQMNGLKPEDTAVYYCAANQLNGVARKKIESDDYDYWGQGTQVTVSS
B10: BI-018 (VHH)
VHH: EVQLVESGGGLVEAGGSLRVSCAASGGTFSEYAMGWIRQAPGKEREFVAGISRGAGRTVYADSVKGRFTISRDNHKNTVYLQMNSLKPEDTAVYYCGADDVSYNRVTTAPGEYDYWGQGIQVTVSS
B11: BI-001 (VHH)
VHH: QVQLVESGGGLVQPGGSLRLSCAASGREFTSVSMAWFRQRPGKEREFVAFSARISETTEYADFVKGRFTIWRDNANAKVTVYLQMNNLKPEDTGVYYCAASEGPATIRQNTYPDWGQGTQVTVSS
B12: BI-019 (VHH)
VHH: EVQLVESGGGAVQAGGALKLSCAYSGRAFSRSLMGWFRQAPGKEREFVAAISWVSVTPDYGDSVKGRFTISRDNAKSTVTLQMNSLKPEDTAVYYCAASERYGTPRRRPNDYDYWGQGTQVTVSS
B13: BI-020 (VHH)
VHH: EVQLVESGGGLVQPGGSLRLSCVASGSIGSITSMAWYRQGTGKQRELVASISSGGRPSYQDSVKGRFTISRDNAENTVYLQMNSLKPEDTAVYHCNVRGLHLDTGLYESWGQGTQVTVSS
B14: BI-021 (VHH)
VHH: EVQLVESGGGLVQPGGSLRLSCASPGSISTLYVMGWYRQAPGKQRDLVARITRGGSTSYANSVKGRFTISRDNVNNTINLQMNSLKPEDTAVYYCYAQTAVGPDYWGQGTQVTVSS
B15: BI-022 (VHH)
VHH: QVQLVESGGGLVQAGGSLRLSCAASGSIFSTLNAIGWYRQAPGKQAELVARITHDGRIVYGDSVKGRFTISRDNAKNTAYLQMNSLNPEDTAVYFCVAPGMVRGQGTQVTVSS
B16: BI-023 (VHH)
VHH: QVQLVESGGGLVQAGDSLRLSCTASGRTLTLSMVTVGWFRQGSGKEREFVAAISWRGGRSYVADDVKGRFTISRDNARNTVYLQMNSVKPEDTAVYYCAAREAIQDLAWTANDFTYWGQGTQVTVSS
B17: BI-025 (VHH)
VHH: EVQLVESGGGLVQPGGSLRLSCAASGRTLSSYTMAWFRQAPGKEREFVATISPVGFIMDYADSVKGRFTISRDNTKNTVYLQMNSLKHEDTALYYCATDLGRKLGTQSCEYGYWGQGTQVTVSS
B18: BI-026 (VHH)
VHH: EVQLVESGGGLVQPGGSLRLSCVASGSTGSITSMAWYRQAPGKQRELVASINSGGRPNYQESVKGRFTISRDNAENTLYLQMNSLSPEDTAVYLCNLRGLRLDTGLYESWGQGTQVTVSS
B19: BI-027 (VHH)
VHH: QVQLVESGGGSVQAGGSLRLSCAASGRTFSSRAMGWFRQAPGKEREFVAAISFGGGTIRYADSVKGRFTISRDDAKNTVYLQMNSLKPEDTAVYYCAARRLHIATLAADFDSWGQGTQVTVSS
B20: BI-028 (VHH)
VHH: EVQLVESGGGLVQTGGSLRLSCAASGLTNGYVMAWFRQAPGKEREFVSGIGWGSSRTYYADSVKGRFTISRDNAINTVALQMNSLKPEDTAVYYCAAQGRISPIYTRANEYPYWGQGTQVTVSS
B21: BI-002 (VHH)
VHH: EVQLVESGGGLVQPGGSLRLSCAASGFTFSSYYMYWIRQAPGKGLEWVSTIKPNGSGIYGNSVAGRFTISRDNAKNMLYLQMNMLRPEDTALYYCARDVRGTVRGQGTQVTVSS
B22: BI-029 (VHH)
VHH: QVQLVESGGGLVQPGGSLRLSCAASGFTFSSYGMSWYRQAPGKEHELVAGISAGSTKYADSVKGRFTISRDNAKKTVYLQMNSLKPEDTAVYYCSRWPRLFEDWGQGTQVTVSS
B23: BI-030 (VHH)
VHH: EVQLVESGGGLVQPGGSLRLSCVASGDIGSMTSTGWYRQAPGKQRDLVASINSGGRPNYQDSVKGRFTISRDSAKNTVYLQMNSLKPEDTAVYYCNLRGLVLSTGLYESWGQGTQVTVSS
B24: BI-031 (VHH)
VHH: QVQLVESGGGLVQPGGSLRLSCAAPGSIATLYVMGWYRQAPGKQRELVARITRGGSTSYANAVKGRFTISRDNAKNTVNLQMNSLKPEDTAIYYCNAQTAVGPDYWGQGTQVTVSS
B25: BI-033 (VHH)
VHH: EVQLVESGGGLVQAGGSLRLSCAASGRTFSAYVMGWFRQTPGKGREFVAAISTGGQISDYANSVKGRFTISRDNAKNTAYLQMNNLKPEDTAVYYCAANRENFLNRGAGDYEYWGQGTQVTVSS
B26: BI-034 (VHH)
VHH: QVQLVESGGGLVQPGGSLRLSCVASGSTGSITSMAWYRQAPGKQRELVASINSGGRPNYQESVKGRFTISRDNAENTLYLQMNSLSPEDTAVYLCNLRGLRLDTGLYESWGQGTQVTVSS
B27: BI-035 (VHH)
VHH: QVQLVESGGGLVQPGGSLRLSCAASGSIAEIYVMGWYRQAPGKQREIVATTPSSGRTNIADSVKGRFIISRDFVKNTVALQMNSLKPEDTAVYYCYARLTPTSVASWGPGTQVTVSS
B28: BI-036 (VHH)
VHH: EVQLVESGGGSVQAGGSLRLSCATSGRGFSTYAMGWFRQAPGKEREFVAAISFGGGTVRYVDSVKGRFTISRDDAKGTVYLQMNSLKPEDTAVYYCAARRLHIATLAADFGSWGQGTQVTVSS
B29: BI-037 (VHH)
VHH: EVQLVESGGGLVQAGDSLRLSCAASGRTFSTYVMGWFRQAPGKEREFVAYISTGGLISDHADSVKGRFTISRDNAKNTVYLQMNSLRPEDTAVYYCAAASRTRRPIATIKDEYDYWGQGTQVTVSS
B30: BI-038 (VHH)
VHH: EVQLVESGGGLVQAGDSLRLSCTASGRTLTLSMVTVGWFRQGSGKEREFVAAISWRGGRSSVADDVKGRFTISRDNARNTVYLQMNSVKPEDTAVYYCAARTAIQDLAWTANDFTYWGQGTQVTVSS
B31: BI-003 (VHH)
VHH: QVQLVESGGGLVQPGGSLRLSCAASGNQLSLYNMGWYRQAPGKQRELVASISRAGRSSYGDSVKGRFTISRDNAKNTVYLQMSSLKPEDTAVYYCKASFLDDYWGQGTQVTVSS
B32: BI-039 (VHH)
VHH: QVQLVESGGGLVQAGGSLRLSCAASGRTFETIAMGWFRQVPGKEREFVAVIRGSGVATYYPDSVKGRFTISKDSAKNTVYLQMNNLKPEDTAVYYCAATTNRFKNTDYTTYDYWGQGTQVTVSS
B33: BI-040 (VHH)
VHH: EVQLVESGGGSVQVGGFLRLSCVGSGRTLNMYNMGWFRQAPGKEREFVAAISGKGLISDYRDSVKGRFTISRDNARNTMYLQMNSLKPEDTAVYHCAAGQWSAGPFTRERSYEYWGQGTQVTVSS
B34: BI-042 (VHH)
VHH: EVQLVESGGGSVQAGGSLRLSCAASGRTFNTKAIGWFRQAPGKEREFVAAISWGGGTIRYADSVKGRVTISRDDAKNTVYLQMNSLKPEDTAVYYCAARQLHIATLAADFDSWGQGTQVTVSS

The chains behind the UniProt entries cited, without tags or fusion partners. Where a name states a change or a piece, a line headed by the entry shows the natural chain unless it says otherwise.
UniProt P29459: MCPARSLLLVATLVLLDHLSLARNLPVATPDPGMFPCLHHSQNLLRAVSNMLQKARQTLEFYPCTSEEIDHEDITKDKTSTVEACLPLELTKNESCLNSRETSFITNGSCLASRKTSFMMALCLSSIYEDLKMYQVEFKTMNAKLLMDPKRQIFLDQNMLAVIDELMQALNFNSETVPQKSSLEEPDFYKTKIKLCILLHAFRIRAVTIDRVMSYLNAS

Target: Interleukin-12 (IL-12) (human) (UniProt P29459)
Assay: phage panning of the immune-derived llama VHH library against IL-12

Binder | binding
B1 | binds
B2 | binds
B3 | binds
B4 | binds
B5 | binds
B6 | binds
B7 | binds
B8 | binds
B9 | binds
B10 | binds
B11 | binds
B12 | binds
B13 | binds
B14 | binds
B15 | binds
B16 | binds
B17 | binds

Binder | binding
B18 | binds
B19 | binds
B20 | binds
B21 | binds
B22 | binds
B23 | binds
B24 | binds
B25 | binds
B26 | binds
B27 | binds
B28 | binds
B29 | binds
B30 | binds
B31 | binds
B32 | binds
B33 | binds
B34 | binds
